Paper PMC8500230
Results are given in words; binding and its absence hold for the method and conditions named. For some assays here: Binding can be weak; no strength is given. For some assays here: Sequences can lack the tags named with a protein.

Amino acid sequences for entries named in this document (tags omitted). A change or cut given only in a name is not applied to a line headed by its entry.
UniProt F4IWE2: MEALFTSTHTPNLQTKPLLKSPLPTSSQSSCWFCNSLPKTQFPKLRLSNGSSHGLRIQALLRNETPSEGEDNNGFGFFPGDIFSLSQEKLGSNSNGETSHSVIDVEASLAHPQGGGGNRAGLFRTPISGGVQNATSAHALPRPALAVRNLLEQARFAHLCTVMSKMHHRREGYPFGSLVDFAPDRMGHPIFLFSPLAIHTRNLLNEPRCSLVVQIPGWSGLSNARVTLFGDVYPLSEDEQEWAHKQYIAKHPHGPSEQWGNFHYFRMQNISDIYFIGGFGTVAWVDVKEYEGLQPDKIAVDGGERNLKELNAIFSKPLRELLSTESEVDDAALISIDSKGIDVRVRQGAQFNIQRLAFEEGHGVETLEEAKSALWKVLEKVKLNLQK
UniProt Q8LSZ4: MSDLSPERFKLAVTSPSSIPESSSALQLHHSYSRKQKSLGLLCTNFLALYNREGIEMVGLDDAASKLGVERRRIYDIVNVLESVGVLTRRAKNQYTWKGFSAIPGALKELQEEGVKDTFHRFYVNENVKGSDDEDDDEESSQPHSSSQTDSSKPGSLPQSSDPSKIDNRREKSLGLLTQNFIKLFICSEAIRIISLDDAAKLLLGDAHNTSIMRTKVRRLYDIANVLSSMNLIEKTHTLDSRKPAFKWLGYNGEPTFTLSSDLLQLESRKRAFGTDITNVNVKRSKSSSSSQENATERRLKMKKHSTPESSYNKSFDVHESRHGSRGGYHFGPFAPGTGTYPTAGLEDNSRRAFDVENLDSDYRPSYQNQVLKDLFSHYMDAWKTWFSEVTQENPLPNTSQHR
UniProt F4J4R5: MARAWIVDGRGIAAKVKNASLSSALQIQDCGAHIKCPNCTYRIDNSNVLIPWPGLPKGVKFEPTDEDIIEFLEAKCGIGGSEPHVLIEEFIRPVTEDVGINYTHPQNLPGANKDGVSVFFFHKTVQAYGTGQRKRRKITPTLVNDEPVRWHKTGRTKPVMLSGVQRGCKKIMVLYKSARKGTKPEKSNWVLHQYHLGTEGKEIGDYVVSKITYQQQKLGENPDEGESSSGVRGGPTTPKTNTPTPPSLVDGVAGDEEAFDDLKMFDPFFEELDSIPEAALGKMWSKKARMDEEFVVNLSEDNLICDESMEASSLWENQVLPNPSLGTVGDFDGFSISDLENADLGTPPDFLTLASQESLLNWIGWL

How the values were obtained:
Assay in all cases: two-hybrid; yeast AH109 co-transformed with an AD-fused and a BD-fused construct; growth on TDO (-L/-W/-H) and QDO (-L/-W/-H/-Ade); mEGFP construct as auto-activation control
[1] = molecular target: ONE1 (Y2H fusion) (Arabidopsis thaliana) (UniProt F4IWE2)
[2] = molecular target: ONE2 (Y2H fusion) (Arabidopsis thaliana) (UniProt Q9C8K8)
[3] = molecular target: T1, RBR1 (Y2H fusion) (Arabidopsis thaliana) (UniProt Q9LKZ3)
T1 sequence: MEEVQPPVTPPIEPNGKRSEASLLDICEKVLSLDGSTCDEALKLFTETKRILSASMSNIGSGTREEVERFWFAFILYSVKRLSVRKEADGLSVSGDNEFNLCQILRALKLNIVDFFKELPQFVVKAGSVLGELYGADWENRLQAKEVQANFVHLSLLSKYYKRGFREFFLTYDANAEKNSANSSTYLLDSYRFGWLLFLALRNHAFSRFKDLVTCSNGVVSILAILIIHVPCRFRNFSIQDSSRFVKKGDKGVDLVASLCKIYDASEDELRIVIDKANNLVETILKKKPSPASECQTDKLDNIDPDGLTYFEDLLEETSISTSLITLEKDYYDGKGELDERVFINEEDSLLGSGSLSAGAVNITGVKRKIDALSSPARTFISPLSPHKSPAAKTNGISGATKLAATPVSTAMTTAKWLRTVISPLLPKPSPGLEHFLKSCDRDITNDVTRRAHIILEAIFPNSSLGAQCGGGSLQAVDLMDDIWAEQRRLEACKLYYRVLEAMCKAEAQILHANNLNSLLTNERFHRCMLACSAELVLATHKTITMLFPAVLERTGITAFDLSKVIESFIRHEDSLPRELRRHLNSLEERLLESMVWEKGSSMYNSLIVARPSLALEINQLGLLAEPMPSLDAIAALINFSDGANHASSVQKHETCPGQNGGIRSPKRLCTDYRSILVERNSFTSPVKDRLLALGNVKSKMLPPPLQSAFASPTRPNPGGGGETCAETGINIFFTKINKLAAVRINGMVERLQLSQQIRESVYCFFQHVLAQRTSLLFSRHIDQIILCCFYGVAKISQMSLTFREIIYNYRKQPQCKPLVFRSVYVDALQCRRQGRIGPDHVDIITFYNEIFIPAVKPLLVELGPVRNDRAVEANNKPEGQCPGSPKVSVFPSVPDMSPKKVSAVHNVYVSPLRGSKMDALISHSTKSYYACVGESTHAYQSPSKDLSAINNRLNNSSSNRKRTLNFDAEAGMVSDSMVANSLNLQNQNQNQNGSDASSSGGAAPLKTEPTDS

[4] = molecular target: E2FE (DEL1) (Y2H fusion) (Arabidopsis thaliana) (UniProt Q8LSZ4)
[5] = molecular target: T2, MYB3R3 (Y2H fusion) (Arabidopsis thaliana) (UniProt Q8H1P9)
T2 sequence: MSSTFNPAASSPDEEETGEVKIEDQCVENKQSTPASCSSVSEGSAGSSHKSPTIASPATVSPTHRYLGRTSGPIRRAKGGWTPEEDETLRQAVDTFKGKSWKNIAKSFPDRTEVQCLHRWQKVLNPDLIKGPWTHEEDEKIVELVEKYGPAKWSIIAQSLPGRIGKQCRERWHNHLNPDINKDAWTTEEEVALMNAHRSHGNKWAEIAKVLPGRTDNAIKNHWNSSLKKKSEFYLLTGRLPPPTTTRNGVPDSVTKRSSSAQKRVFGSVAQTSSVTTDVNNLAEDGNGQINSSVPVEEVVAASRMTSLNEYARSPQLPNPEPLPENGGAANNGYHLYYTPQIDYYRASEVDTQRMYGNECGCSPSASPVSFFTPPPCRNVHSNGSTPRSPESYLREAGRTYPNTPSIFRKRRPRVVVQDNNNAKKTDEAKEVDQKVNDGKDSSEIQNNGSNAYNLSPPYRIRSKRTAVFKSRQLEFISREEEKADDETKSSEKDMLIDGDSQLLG

[6] = molecular target: T3, TCX6 (Y2H fusion) (Arabidopsis thaliana) (UniProt Q9SL70)
T3 sequence: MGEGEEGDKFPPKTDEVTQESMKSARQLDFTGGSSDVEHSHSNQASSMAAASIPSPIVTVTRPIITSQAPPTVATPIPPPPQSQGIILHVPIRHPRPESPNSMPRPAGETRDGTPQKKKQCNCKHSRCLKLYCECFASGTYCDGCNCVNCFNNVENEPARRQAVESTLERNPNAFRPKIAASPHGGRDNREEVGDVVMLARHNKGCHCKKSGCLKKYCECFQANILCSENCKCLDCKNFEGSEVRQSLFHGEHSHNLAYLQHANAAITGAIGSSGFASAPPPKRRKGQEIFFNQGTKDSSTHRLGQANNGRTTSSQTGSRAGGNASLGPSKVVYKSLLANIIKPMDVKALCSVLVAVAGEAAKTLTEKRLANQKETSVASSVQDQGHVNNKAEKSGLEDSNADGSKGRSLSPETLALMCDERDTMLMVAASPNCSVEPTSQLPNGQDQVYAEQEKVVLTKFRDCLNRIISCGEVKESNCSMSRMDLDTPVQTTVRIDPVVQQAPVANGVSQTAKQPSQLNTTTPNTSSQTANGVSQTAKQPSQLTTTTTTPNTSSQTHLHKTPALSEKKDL

| Substance | binding [2] | binding [3] | also measured |
| --- | --- | --- | --- |
| AD-NAC044 (Y2H fusion) (from UniProt F4J4R5) | no binding | binds | binding [1]: no binding |
| LIN52B (Y2H fusion) (Arabidopsis thaliana) |  | no binding |  |
| NAC044 AxAxA mutant (Y2H fusion) (Arabidopsis thaliana) |  | no binding |  |

More lines, main results first:

| binding [2] | binding [3] | Substance | also measured |
| --- | --- | --- | --- |
|  | no binding | LIN52A (Y2H fusion) (Arabidopsis thaliana) |  |
| binds |  | ONE1 (Y2H fusion) (from UniProt F4IWE2) | binding [4]: binds; binding [5]: binds |
|  | no binding | TCX6^AxAxA (Y2H fusion) (from UniProt Q9SL70) | binding [6]: binds |
